Experimental findings from US9730935B2, “Targeting a non-canonical notch signaling pathway for cancer treatment” (The Board of Trustees of the Leland Stanford Junior …, priority 2013, dated 2017) are described below.

Protein sequences, listed by entry. Tags and fused reporters are not part of them. Residues count along the entry.
UniProt Q9BXM7, residues 78-581: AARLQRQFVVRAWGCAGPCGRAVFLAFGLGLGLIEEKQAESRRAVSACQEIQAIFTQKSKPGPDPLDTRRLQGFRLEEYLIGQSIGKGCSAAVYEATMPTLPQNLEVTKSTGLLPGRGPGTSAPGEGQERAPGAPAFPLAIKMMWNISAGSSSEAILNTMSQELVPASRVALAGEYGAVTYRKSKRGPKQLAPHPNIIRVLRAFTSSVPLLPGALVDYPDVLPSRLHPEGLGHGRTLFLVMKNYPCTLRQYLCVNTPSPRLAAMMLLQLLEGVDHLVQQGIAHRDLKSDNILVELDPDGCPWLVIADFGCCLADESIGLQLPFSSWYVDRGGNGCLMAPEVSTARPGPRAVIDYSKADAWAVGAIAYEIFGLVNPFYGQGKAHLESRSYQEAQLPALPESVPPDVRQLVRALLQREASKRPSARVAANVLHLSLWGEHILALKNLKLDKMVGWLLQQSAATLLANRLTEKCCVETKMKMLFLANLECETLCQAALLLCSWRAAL
UniProt P07207, residues 53-2703: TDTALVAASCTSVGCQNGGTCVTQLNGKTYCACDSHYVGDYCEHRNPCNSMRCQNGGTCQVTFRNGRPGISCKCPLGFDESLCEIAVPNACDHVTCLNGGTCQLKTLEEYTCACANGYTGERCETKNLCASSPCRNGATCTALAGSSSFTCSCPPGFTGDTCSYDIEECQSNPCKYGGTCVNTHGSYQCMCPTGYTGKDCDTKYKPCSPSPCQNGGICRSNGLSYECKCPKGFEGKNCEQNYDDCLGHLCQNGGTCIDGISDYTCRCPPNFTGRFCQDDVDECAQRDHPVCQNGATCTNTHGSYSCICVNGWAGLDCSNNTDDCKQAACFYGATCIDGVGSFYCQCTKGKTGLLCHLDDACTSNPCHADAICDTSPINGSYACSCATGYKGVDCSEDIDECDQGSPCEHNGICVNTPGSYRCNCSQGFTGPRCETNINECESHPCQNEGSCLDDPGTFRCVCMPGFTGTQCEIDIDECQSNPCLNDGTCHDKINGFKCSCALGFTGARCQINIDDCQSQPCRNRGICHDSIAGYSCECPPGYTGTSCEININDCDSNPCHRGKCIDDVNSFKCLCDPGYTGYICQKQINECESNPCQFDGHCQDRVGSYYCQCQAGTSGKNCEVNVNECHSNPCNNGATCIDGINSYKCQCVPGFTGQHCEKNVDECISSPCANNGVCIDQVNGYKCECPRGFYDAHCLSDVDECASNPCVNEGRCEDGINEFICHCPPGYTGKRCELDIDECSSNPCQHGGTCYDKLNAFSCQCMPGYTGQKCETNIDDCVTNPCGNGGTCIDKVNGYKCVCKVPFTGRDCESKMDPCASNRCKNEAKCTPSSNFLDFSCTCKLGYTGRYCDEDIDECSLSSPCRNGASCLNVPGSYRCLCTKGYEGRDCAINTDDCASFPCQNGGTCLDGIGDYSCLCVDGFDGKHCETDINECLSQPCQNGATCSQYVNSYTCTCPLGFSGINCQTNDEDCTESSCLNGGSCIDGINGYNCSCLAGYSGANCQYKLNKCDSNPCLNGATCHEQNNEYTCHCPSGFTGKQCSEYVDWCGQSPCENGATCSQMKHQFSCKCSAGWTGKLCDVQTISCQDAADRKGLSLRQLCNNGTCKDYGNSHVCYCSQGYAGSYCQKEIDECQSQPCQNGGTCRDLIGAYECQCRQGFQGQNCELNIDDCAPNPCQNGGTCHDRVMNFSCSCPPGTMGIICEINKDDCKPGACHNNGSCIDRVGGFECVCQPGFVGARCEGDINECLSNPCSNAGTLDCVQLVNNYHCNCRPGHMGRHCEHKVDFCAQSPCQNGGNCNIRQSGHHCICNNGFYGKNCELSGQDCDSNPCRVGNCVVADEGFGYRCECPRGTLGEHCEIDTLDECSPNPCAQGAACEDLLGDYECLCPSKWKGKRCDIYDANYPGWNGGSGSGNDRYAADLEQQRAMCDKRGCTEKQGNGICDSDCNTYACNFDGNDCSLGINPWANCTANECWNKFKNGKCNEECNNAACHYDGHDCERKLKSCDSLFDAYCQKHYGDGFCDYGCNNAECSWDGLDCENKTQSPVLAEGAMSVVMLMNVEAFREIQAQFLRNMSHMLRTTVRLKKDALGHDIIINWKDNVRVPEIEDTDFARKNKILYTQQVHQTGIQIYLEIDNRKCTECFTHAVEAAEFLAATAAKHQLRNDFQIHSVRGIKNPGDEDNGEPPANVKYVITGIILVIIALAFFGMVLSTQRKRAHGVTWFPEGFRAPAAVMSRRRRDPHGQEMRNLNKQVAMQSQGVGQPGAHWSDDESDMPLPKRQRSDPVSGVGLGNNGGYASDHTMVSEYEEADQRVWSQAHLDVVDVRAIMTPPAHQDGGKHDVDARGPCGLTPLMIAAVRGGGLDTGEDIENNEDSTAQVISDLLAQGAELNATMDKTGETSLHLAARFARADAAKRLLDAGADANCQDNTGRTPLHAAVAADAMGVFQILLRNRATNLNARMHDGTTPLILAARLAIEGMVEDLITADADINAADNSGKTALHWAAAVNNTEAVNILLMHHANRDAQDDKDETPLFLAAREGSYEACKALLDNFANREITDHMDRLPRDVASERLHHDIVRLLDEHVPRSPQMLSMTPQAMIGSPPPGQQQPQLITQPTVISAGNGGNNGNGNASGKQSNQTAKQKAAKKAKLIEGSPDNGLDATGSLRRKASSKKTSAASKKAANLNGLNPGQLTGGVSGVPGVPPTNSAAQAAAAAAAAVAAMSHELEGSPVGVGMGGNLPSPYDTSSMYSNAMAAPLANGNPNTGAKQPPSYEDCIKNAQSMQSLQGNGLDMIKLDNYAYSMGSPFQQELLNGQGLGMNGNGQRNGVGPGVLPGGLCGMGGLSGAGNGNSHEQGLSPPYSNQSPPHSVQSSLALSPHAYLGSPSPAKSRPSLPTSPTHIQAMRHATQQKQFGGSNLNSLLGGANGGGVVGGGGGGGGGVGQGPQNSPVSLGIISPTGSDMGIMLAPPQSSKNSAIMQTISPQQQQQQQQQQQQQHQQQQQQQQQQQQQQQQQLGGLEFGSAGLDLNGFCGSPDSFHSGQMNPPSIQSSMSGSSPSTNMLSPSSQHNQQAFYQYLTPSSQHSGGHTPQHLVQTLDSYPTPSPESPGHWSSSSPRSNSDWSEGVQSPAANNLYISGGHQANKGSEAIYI
UniProt P46531, residues 19-2555: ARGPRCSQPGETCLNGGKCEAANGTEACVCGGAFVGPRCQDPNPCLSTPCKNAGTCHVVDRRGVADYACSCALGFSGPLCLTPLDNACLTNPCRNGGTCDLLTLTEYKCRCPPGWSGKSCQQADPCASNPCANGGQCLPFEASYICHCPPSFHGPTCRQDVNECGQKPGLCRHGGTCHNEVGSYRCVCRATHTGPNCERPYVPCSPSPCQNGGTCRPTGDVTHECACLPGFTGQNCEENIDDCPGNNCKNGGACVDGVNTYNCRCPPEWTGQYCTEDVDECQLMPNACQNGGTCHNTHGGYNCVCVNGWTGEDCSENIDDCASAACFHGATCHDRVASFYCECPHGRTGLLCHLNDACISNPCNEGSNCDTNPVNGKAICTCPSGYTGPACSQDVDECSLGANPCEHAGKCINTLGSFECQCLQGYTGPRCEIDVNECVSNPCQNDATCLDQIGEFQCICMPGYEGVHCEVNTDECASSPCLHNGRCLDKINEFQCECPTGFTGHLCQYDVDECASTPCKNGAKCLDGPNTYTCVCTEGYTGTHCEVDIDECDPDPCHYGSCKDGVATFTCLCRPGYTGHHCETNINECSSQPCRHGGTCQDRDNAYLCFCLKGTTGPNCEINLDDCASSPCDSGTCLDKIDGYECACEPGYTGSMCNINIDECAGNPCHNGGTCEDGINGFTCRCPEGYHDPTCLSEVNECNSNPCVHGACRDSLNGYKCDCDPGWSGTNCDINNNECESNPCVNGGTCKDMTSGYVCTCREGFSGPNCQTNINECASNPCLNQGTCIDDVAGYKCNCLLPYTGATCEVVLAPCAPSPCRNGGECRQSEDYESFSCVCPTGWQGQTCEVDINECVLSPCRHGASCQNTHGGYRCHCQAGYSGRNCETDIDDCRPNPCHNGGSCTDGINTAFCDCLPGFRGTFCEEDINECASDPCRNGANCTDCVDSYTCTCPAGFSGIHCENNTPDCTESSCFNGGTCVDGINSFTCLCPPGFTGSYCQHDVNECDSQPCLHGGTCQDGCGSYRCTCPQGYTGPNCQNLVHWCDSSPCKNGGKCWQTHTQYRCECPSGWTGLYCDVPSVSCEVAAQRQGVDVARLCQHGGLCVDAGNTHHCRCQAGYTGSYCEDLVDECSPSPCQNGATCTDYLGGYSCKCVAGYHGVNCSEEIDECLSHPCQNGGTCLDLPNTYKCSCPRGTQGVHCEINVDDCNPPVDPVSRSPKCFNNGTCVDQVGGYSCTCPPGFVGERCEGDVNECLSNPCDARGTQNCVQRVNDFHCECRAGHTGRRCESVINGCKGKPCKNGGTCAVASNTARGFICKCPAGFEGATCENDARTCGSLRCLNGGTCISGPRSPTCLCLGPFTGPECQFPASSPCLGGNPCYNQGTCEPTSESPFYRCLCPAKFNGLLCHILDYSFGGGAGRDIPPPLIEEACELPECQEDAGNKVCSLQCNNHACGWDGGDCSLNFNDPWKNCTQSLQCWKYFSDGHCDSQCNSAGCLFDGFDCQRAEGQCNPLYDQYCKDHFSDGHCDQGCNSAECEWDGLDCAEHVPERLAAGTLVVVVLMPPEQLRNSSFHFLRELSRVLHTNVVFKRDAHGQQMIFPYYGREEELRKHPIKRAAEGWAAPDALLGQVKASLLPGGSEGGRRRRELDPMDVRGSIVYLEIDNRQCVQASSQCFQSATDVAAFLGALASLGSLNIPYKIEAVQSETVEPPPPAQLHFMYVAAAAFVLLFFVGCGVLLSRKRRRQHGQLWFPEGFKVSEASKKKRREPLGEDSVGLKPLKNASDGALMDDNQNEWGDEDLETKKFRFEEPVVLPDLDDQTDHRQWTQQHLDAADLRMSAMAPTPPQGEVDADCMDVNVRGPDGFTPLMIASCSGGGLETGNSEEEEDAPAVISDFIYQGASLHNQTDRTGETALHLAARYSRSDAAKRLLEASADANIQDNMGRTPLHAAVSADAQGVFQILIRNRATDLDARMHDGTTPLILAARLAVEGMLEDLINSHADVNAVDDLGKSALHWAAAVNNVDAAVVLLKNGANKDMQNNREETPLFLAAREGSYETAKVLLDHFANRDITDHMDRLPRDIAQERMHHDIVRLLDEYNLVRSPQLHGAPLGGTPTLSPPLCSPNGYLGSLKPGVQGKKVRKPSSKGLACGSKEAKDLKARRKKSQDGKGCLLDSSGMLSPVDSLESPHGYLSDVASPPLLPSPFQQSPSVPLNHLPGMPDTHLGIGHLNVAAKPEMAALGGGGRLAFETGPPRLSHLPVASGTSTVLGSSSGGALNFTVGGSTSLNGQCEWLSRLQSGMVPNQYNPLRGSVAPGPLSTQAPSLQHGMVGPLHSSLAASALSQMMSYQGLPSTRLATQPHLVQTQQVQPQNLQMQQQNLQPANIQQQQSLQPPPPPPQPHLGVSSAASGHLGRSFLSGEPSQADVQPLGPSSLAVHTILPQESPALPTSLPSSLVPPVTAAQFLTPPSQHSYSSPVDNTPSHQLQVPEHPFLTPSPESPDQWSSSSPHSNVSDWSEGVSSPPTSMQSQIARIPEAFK

No constants are given. Whether binding was seen depends on the method and setting. Binding seen in cells or lysates may run through a third protein. Some entries that bind do so weakly or less than the wild type.

Assay [1] deals with T1, Drosophila PTEN-induced kinase 1 (dPINK1) (Drosophila) (UniProt Q0KHV6).
T1 sequence (looked up): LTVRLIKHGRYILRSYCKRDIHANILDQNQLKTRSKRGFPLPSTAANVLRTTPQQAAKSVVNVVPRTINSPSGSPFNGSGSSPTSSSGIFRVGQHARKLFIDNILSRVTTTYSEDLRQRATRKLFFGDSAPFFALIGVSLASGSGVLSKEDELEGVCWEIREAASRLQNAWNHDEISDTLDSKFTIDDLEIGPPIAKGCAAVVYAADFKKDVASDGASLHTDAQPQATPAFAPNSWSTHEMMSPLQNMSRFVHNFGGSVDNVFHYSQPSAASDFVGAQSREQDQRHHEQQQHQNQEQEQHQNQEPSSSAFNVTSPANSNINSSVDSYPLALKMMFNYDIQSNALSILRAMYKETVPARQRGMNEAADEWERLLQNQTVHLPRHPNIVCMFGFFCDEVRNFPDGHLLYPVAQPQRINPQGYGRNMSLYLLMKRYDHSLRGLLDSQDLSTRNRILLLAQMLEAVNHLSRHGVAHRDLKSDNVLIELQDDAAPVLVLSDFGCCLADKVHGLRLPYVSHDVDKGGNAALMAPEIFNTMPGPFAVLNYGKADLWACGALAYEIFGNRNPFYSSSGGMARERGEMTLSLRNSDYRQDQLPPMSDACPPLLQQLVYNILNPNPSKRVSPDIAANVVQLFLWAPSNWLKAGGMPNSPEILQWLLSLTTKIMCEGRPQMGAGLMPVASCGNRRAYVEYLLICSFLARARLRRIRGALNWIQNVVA
The assay is described as follows: co-immunoprecipitation with anti-GFP beads, western blot (FIG. 3J).

Assay [2] deals with T1, Drosophila PTEN-induced kinase 1 (dPINK1) (Drosophila). The assay is described as follows: co-immunoprecipitation, western blot (FIG. 3J, NiGFP fly tissue). A general note: Immunoblotting shows a protein as a band on a membrane.
The target in assay [3] is human PTEN-induced putative kinase 1 (PINK1) (human) (UniProt Q9BXM7). The assay is described as follows: co-immunoprecipitation with anti-human PINK1 from mitochondrial extracts, western blot (FIG. 3K).
The target is the same in assay [4]. The assay is described as follows: co-immunoprecipitation with anti-human PINK1 from mitochondrial extracts, western blot.
Assay [5] has as its target T1, Drosophila PTEN-induced kinase 1 (dPINK1) (Drosophila). The assay is described as follows: co-immunoprecipitation, western blot (FIG. 13C).
The target is the same in assay [6]. Nature of the assay: co-immunoprecipitation, western blot (FIG. 13C, fly muscle extracts).

With “GFP-tagged Notch (NiGFP) expressed from the endogenous N locus, Drosophila (from UniProt P07207 53-2703) (receptor)”, the binding entry in assay [1] and in assay [2] was “binds” each time.

As to “human Notch1 (hNotch1) (from UniProt P46531 19-2555) (receptor)”, the binding result in assay [3] and in assay [4] was “binds” throughout.

For “overexpressed N (Mhc-Gal4 driven) in fly muscle extracts, Drosophila (from UniProt P07207 53-2703) (receptor)”, the binding entry in assay [5] and in assay [6] was “binds” in each case.
